{"sequences": {"note": "Chains of the proteins cited; added tags and fusions are not shown.", "UniProt P38903": "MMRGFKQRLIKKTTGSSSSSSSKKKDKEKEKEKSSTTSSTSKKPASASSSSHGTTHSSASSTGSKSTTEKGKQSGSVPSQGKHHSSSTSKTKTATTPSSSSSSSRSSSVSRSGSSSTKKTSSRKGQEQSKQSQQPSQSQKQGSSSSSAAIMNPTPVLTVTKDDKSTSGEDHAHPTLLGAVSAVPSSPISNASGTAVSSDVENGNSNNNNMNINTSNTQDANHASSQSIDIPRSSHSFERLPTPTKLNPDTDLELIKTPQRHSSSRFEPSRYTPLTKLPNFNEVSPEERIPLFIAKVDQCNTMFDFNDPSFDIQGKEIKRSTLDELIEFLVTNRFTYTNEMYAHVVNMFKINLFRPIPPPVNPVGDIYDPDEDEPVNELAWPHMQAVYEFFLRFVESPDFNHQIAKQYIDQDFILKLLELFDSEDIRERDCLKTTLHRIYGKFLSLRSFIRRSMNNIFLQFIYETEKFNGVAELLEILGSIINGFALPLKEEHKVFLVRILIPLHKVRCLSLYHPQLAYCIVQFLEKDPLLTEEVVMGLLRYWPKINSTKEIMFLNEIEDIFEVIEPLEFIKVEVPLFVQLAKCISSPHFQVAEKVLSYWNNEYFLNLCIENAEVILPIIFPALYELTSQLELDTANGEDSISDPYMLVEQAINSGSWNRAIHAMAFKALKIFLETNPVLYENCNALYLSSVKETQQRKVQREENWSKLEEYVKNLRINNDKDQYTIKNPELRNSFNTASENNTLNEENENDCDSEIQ"}, "source": "paper doi:10.1101/2020.05.30.124925", "binders": {"B1": {"name": "Rck2-protA-H3-HA (protein, UniProt P38623 1-610)", "chain": "MLKIKALFSKKKPDQADLSQESKKPFKGKTRSSGTNNKDVSQITSSPKKSFQDKNIVQYPSVVADDHHMKSLTDELVTTIDSDSSPSDNITTENVETVTSVPAIDVHESSEGQLSSDPLISDESLSEQSEIISDIQDDSTDDDNMEDEIPEKSFLEQKELIGYKLINKIGEGAFSKVFRAIPAKNSSNEFLTKNYKAVAIKVIKKADLSSINGDHRKKDKGKDSTKTSSRDQVLKEVALHKTVSAGCSQIVAFIDFQETDSYYYIIQELLTGGEIFGEIVRLTYFSEDLSRHVIKQLALAVKHMHSLGVVHRDIKPENLLFEPIEFTRSIKPKLRKSDDPQTKADEGIFTPGVGGGGIGIVKLADFGLSKQIFSKNTKTPCGTVGYTAPEVVKDEHYSMKVDMWGIGCVLYTMLCGFPPFYDEKIDTLTEKISRGEYTFLKPWWDEISAGAKNAVAKLLELEPSKRYDIDQFLDDPWLNTFDCLPKEGESSQKKAGTSERRHPHKKQFQLFQRDSSLLFSPAAVAMRDAFDIGNAVKRTEEDRMGTRGGLGSLAEDEELEDSYSGAQGDEQLEQNMFQLTLDTSTILQRRKKVQENDVGPTIPISATIRE"}}, "molecular_target": "Rts1-HKMT-myc (S. cerevisiae) (UniProt P38903)", "test": "proximity labelling", "note": "No constants are given. Whether binding was seen depends on the method and setting. In cells and extracts the contact can be indirect. Here binding means that the protein was enriched with, or labelled near, the bait; the list need not be complete. Where a sequence is shown, tags or fusion partners need not be part of it.", "data": [{"binder": "B1", "values": [{"measurement": "binding", "result": "binds"}]}]}
